Laboratory results taken from US6444683B2, “17-azolyl steroids useful as androgen synthesis inhibitors” (University of Maryland at Baltimore, priority 1997, dated 2002).

Test system: modified form of human P45017α
Test: UV-VIS difference spectroscopy of complexes with modified human P45017α
Format: binding
Conditions: 20 μM compound; P450 concentration 1.8 μM

C[C@]12CC[C@H](O)CC1=CC[C@@H]1[C@@H]2CC[C@]2(C)C(n3cncn3)=CC[C@@H]12 [Compound 6, 3β-hydroxy-17-(1H, 1,2,4-triazol-1-yl)androsta-5,16-diene]
Peak position of the Soret maximum of the complex: 422 nm | Type of difference spectrum induced: Type II difference spectrum

C[C@]12CC[C@H](O)CC1=CC[C@@H]1[C@@H]2CC[C@]2(C)C(n3ccnc3)=CC[C@@H]12 [Compound 11, 3β-hydroxy-17-(1H-imidazol-1-yl)androsta-5,16-diene]
Peak position of the Soret maximum of the complex: 426 nm | Type of difference spectrum induced: Type II difference spectrum
